“And” between values parts separate entries of the source, which are not always exact repeats. Equal values may be shown once. This is one part of the list. Most values come without repeats; read them as rough.
Each compound was assayed on MEPP (mouse ovarian epithelium Trp53/Pten KO) (assay: cell viability relative to untreated (fraction); higher = less growth inhibition). Conditions: 5 µM; 3 days.

Structure (SMILES)	cell viability
O=C(O)[C@@]1(CCCCCCOc2ccc(Cl)cc2)CO1	1.03
Cc1cnc(Nc2ccc(N3CCN(C)CC3)cc2)nc1Nc1cccc(S(=O)(=O)NC(C)(C)C)c1	0.883
N#Cc1c(Oc2ccc(F)c(NC(=O)Cc3cccc(C(F)(F)F)c3)c2)ccc2nc(NC(=O)C3CC3)sc12	0.859
CC(=O)N1c2ccc(-c3ccc(C(=O)O)cc3)cc2[C@H](Nc2ccc(Cl)cc2)C[C@@H]1C	0.87
O=C(Nc1ccc(-c2ccnc(Nc3ccc(N4CCOCC4)cc3)n2)cc1)C1CCCN1 (centres undefined)	0.926
O=C(Nc1cccc(Nc2nccc(Nc3cccc(C(F)(F)F)c3)n2)c1)C1CC1	1.06
CC(C)[C@H](C(=O)Nc1ccc(C(=O)NO)cc1)c1ccccc1	1.06
NC(=O)c1ccc(I)c([N+](=O)[O-])c1	1.13
CN1CCCN(C(=O)c2cccc(-c3ccc(/C=C4/C(=O)Nc5ccc(Cl)cc54)o3)c2)CC1	0.685
Cn1c2ccccc2c2c3c(c4c5ccccc5n(CCC#N)c4c21)CNC3=O	0.572
Cc1[nH]c2ccccc2c1CCNCc1ccc(/C=C/C(=O)NO)cc1	0.382
Nc1nccc2c1ncn2C1C=C(CO)C(O)C1O (centres undefined)	0.583
O=C(CCCCCN1C(=O)c2cccc3cccc(c23)C1=O)NO	0.576
Cn1ncnc1[C@H]1c2n[nH]c(=O)c3cc(F)cc(c23)N[C@@H]1c1ccc(F)cc1	0.721
Clc1ccc(NN=C(c2ccccc2)c2ccccn2)nc1	0.641
COc1ccc(-n2c(SCCCN3C(=O)c4cccc5cccc(c45)C3=O)nnc2-c2ccncc2)cc1	0.787
CC(=O)SCC(=O)c1ccc(NS(=O)(=O)c2ccc(OCCCN(C)C)cc2)nc1	0.637
CN(C)CCCCC(=O)Nc1ccc(NC(=S)NC(=O)c2ccc(C(C)(C)C)cc2)cc1	0.286
N#CCNC(=O)c1ccc(-c2ccnc(Nc3ccc(N4CCOCC4)cc3)n2)cc1	0.59
CN1CCN(c2cccc(Nc3nc4c(-c5ccc(S(C)(=O)=O)cc5)cccn4n3)c2)CC1	0.937

Structure (SMILES)	cell viability
Cc1nc(C(=O)NCC(=O)O)c(O)c2ccc(Oc3ccccc3)cc12	0.843
O=C(c1ccc(C(=O)N2CCC(N3CCCC3)CC2)c(Nc2ccccc2)c1)N1CCC(N2CCCC2)CC1	0.992
O=C(O)CCNc1cc(N2CCc3ccccc3CC2)nc(-c2ccccn2)n1	1
CN1CCc2c(c3ccccc3n2Cc2ccc(C(=O)NO)cc2)C1	0.865 and 0.957
O=C(O)c1ccc(CN2CCC(CN[C@@H]3C[C@H]3c3ccccc3)CC2)cc1	0.977
Cc1cc(CN2CCN(c3c(Br)cnc4nc(-c5ccc(N6CCN(C)CC6)cc5)[nH]c34)CC2)no1	0.336
CC[C@@H]1C(=O)N(C)c2cnc(Nc3ccc(C(=O)NC4CCN(C)CC4)cc3OC)nc2N1C1CCCC1	0.408
O=Nc1ccc(O)c2ncccc12	0.702
CCCc1cc(C)[nH]c(=O)c1CNC(=O)c1cc(-c2ccnc(N3CCN(C)CC3)c2)cc2c1cnn2C(C)C	0.902
Cc1cnc(Nc2ccc(OCCN3CCCC3)cc2)nc1Nc1cccc(S(=O)(=O)NC(C)(C)C)c1	0.742
C[C@@H]1CC(=O)Nc2cccc(-c3ccc4c(c3)c(-c3cnn(C)c3)nn4C)c2N1	0.628
CO[C@@H]1[C@H](N(C)C(=O)c2ccccc2)C[C@H]2O[C@]1(C)n1c3ccccc3c3c4c(c5c6ccccc6n2c5c31)C(=O)NC4	0.538
O=C(NN=Cc1c(O)ccc2ccccc12)c1ccncc1	0.503
C/C=C1\NC(=O)[C@H]2CSSCC/C=C/[C@H](CC(=O)N[C@H](C(C)C)C(=O)N2)OC(=O)[C@H](C(C)C)NC1=O	0.252
COc1cc2c(NC3CCN(C(C)C)CC3)nc(N3CCC(F)(F)CC3)nc2cc1OCCCN1CCCC1	1.04
CC(C)N(C[C@H]1O[C@@H](n2cnc3c(N)ncnc32)[C@H](O)[C@@H]1O)[C@H]1C[C@@H](CCc2nc3cc(C(C)(C)C)ccc3[nH]2)C1	0.809
O=C(NC[C@H](O)CN1CCc2ccccc2C1)c1cc(NC2COC2)ncn1	1.02
CCN(CCCOc1ccc2c(Nc3cc(CC(=O)Nc4cccc(F)c4)[nH]n3)ncnc2c1)CCOP(=O)(O)O	0.966 and 0.815
Nc1nc(OCc2cc(Br)cs2)c2[nH]cnc2n1	1.05

Reformatted with each value named: part of the list above
NC(=O)c1ccc(I)c([N+](=O)[O-])c1
  cell viability: 1.13
CN1CCc2c(c3ccccc3n2Cc2ccc(C(=O)NO)cc2)C1
  cell viability: 0.865 and 0.957
C/C=C1\NC(=O)[C@H]2CSSCC/C=C/[C@H](CC(=O)N[C@H](C(C)C)C(=O)N2)OC(=O)[C@H](C(C)C)NC1=O
  cell viability: 0.252

Source: the supplement of paper PMC12873370
